{"source": "PubChem BioAssay AID540276", "about": "(National Center for Advancing Translational Sciences (NCATS), 2011)", "note": "Several values for one entry are separate records, joined by “and”; a condition that tells them apart may be missing. Identical values can stand only once. Screen size: about 300,000 compounds; about 5,400 (1.8%) were called active. The inconclusive results got no clear call from the source; some entries with a clear call stand among them for comparison. Calls come from the whole dose curve; tested in HEK293 cells. Where the call is inconclusive, the potency comes from a doubtful curve fit. % is set by controls: 0 for no effect and ±100 for the full control effect; potency is the fitted concentration of half-maximal effect.", "data": [{"assay": "qHTS for inhibitors of binding or entry into cells for Marburg Virus", "settings": "Marburg virus pseudotyped entry inhibition, cell reporter; activity change, negative = inhibition: at 37.8 µM (top of the series) unless noted", "values": [{"smiles": "Cc1ccsc1CN(C(=O)c1oc2ccccc2c1C)C1CCS(=O)(=O)C1", "note": "(stereo not drawn)", "Potency": "inconclusive: 7.94 µM [inhibitor, partial curve, poor fit]"}, {"smiles": "CCC(=O)NC(c1ccc([N+](=O)[O-])cc1)c1c(O)ccc2ccccc12", "note": "(stereo not drawn)", "activity change, negative = inhibition": "inactive: -25.1%"}, {"smiles": "Cc1ccc(C(=O)Cn2nnc3ccccc32)cc1", "Potency": "inconclusive: 1 µM [activator, full curve]"}, {"smiles": "CC(C)CCN(C(=O)c1csnn1)C(C(=O)NC1CCCC1)c1ccc(F)cc1", "note": "(stereo not drawn)", "Potency": "inconclusive: 5.62 µM [activator, partial curve, poor fit]"}, {"smiles": "O=C(c1ccc(F)cc1)C1CCN(Cc2cn[nH]c2-c2ccc(F)cc2)CC1", "Potency": "inconclusive: 35.5 µM [inhibitor, single point]"}, {"smiles": "O=C(NCC1CCCO1)C(c1ccncc1)N(Cc1cccs1)C(=O)Cn1nnc(-c2ccc(F)cc2)n1", "note": "(stereo not drawn)", "activity change, negative = inhibition": "inactive: -13.6% [at 46.1 µM]"}, {"smiles": "Cc1oc(-c2cc(F)cc(F)c2)nc1CN1CCN(C(=O)c2ccco2)CC1", "Potency": "inconclusive: 3.98 µM [inhibitor, single point]"}, {"smiles": "COc1ccc(C(c2nnnn2C2CCCC2)N2CCC(C)CC2)c(OC)c1", "note": "(stereo not drawn)", "Potency": "inconclusive: 11.2 µM [inhibitor, partial curve, poor fit]"}, {"smiles": "O=C(CN1CCN(S(=O)(=O)c2ccc(Br)cc2)CC1)N/N=C/c1ccco1", "Potency": "inconclusive: 2 µM [activator, partial curve, poor fit]"}, {"smiles": "OC1CCN(Cc2cccc(Oc3ccccc3)c2)CC1", "activity change, negative = inhibition": "inactive: 12.9%"}, {"smiles": "Cc1nn(C)c(C)c1CN(Cc1nc(CCC(C)C)no1)C(C)C", "Potency": "inconclusive: 5.01 µM [inhibitor, full curve]"}, {"smiles": "Cc1ccccc1CNC(=O)c1cc(COc2ccc(F)cc2F)on1", "activity change, negative = inhibition": "inactive: -1.19%"}, {"smiles": "O=C(Nc1ccc(F)c(F)c1)C1CCCN1S(=O)(=O)c1cccc2nsnc12", "note": "(stereo not drawn)", "activity change, negative = inhibition": "inactive: 2% [at 46.1 µM]"}, {"smiles": "CCn1c(CN2CCCCC2)nc2cc(NC(=O)c3ccc([N+](=O)[O-])cc3)ccc21", "Potency": "inconclusive: 3.55 µM [inhibitor, single point]"}, {"smiles": "CCCCSc1nc(O)c(C2OC(=O)c3c2ccc(OC)c3OC)c(=O)n1-c1ccccc1", "note": "(stereo not drawn)", "activity change, negative = inhibition": "inactive: -1.44%"}, {"smiles": "COc1cccc(C(=O)Nc2ccc(C(=O)NCC3CCCO3)cc2)c1", "note": "(stereo not drawn)", "activity change, negative = inhibition": "inactive: -20.4% [at 46.1 µM]"}, {"smiles": "NC(=O)c1oc2ccccc2c1NC(=O)c1nc2ccccc2s1", "Potency": "inconclusive: 3.55 µM [activator, partial curve, poor fit]"}, {"smiles": "C/C(=N\\OC(=O)c1c(-c2ccccc2Cl)noc1C)c1ccncc1", "Potency": "inconclusive: 0.562 µM [inhibitor, full curve, poor fit]"}, {"smiles": "COC(=O)c1c(NC(=O)/C=C/C(=O)O)sc(C)c1-c1ccc(C)c(C)c1", "Potency": "inconclusive: 35.5 µM [inhibitor, single point]"}, {"smiles": "Cc1ccc(C(=O)N/C(=C\\c2ccc(C(C)C)cc2)C(=O)NCCCN2CCOCC2)cc1", "Potency": "inconclusive: 12.6 µM [inhibitor, single point]"}, {"smiles": "CCN(CC)c1ccc(/C=N/NC(=O)CC(C)C)cc1", "activity change, negative = inhibition": "inactive: 16.9%"}, {"smiles": "Cc1ccc(-c2noc(-c3ccccc3C(=O)NCC3CCCO3)n2)cc1", "note": "(stereo not drawn)", "Potency": "inconclusive: 35.5 µM [inhibitor, single point]"}, {"smiles": "CC(C)Cc1ccc(C(C)C(N)=NCCc2ccccc2)cc1", "note": "(stereo not drawn)", "Potency": "active: 2.24 µM"}, {"smiles": "CC(C)CCn1cnc2c(cnn2-c2ccc(F)cc2)c1=O", "Potency": "inconclusive: 1.26 µM [inhibitor, single point]"}, {"smiles": "Cc1cccc(C)c1NC(=O)CN(C)C(=O)c1cccc(S(=O)(=O)N2CCN(c3ccc(F)cc3)CC2)c1", "Potency": "inconclusive: 11.2 µM [inhibitor, partial curve, poor fit]"}, {"smiles": "Cc1ccc(/C=C2/C(=O)c3ccc(C(=O)O)cc3C2=O)o1", "Potency": "inconclusive: 35.5 µM [activator, single point]"}, {"smiles": "Cc1ccc(SCCNC(=S)Nc2ccc(C)c(C)c2)cc1", "Potency": "inconclusive: 20.6 µM [inhibitor, single point]"}, {"smiles": "O=C(Nc1cc(Sc2nc3ccccc3s2)cc([N+](=O)[O-])c1)c1ccccc1", "Potency": "inconclusive: 28.2 µM [inhibitor, single point]"}, {"smiles": "Clc1ccc(-c2nn3c(-c4ccccc4)nnc3s2)cc1", "Potency": "inconclusive: 6.51 µM [activator, partial curve, poor fit]"}, {"smiles": "CC(=NC1CCCCC1)C1=C(O)c2ccccc2C1=O", "Potency": "inconclusive: 32.6 µM [inhibitor, single point]"}, {"smiles": "CC1CC(C)CN(C/C=C/c2ccccc2[N+](=O)[O-])C1", "note": "(stereo not drawn)", "Potency": "inconclusive: 32.6 µM [inhibitor, single point]"}, {"smiles": "O=C(N/N=C/c1cccc(F)c1)c1csc2c1CCCC2", "Potency": "inconclusive: 0.355 µM [activator, partial curve, poor fit]"}, {"smiles": "CC(C)COc1ccc(C(=O)NC(CC(C)C)C(=O)O)cc1", "note": "(stereo not drawn)", "activity change, negative = inhibition": "inactive: 26.8%"}, {"smiles": "CC(=O)c1ccc(-c2ccc(C(=O)NCC(c3ccc(F)cc3)N3CCOCC3)o2)cc1", "note": "(stereo not drawn)", "Potency": "inconclusive: 25.1 µM [inhibitor, single point]"}, {"smiles": "COc1cc2c(=O)n(CCC(=O)NCC3CCCO3)c(=O)n(CC(=O)Nc3ccc(F)cc3)c2cc1OC", "note": "(stereo not drawn)", "Potency": "inactive and inconclusive: 5.62 µM [activator, single point]"}, {"smiles": "COc1cc(C(=O)Nc2ccc(-c3nnc(-c4ccco4)o3)cc2)cc(OC)c1OC", "Potency": "inconclusive: 6.51 µM [inhibitor, single point]"}, {"smiles": "CCOc1ccc2nc(SCc3ccc(F)cc3)sc2c1", "activity change, negative = inhibition": "inactive: 0.739%"}, {"smiles": "Cc1ccc(S(=O)(=O)N2CCC(=O)N([C@H](COCc3ccc(Cl)cc3)C(C)C)CC2)cc1", "Potency": "inconclusive: 3.96 µM [inhibitor, full curve, poor fit]"}, {"smiles": "O=C(NNC(=S)NCc1ccc(Cl)cc1)c1ccc(Br)o1", "activity change, negative = inhibition": "inactive: 2.84%"}, {"smiles": "CCCCN(C)C(=O)CCCc1c[nH]c2ccccc12", "Potency": "inconclusive: 35.5 µM [inhibitor, single point]"}, {"smiles": "COc1cc(C2c3c(-c4cc(C)cc(C)c4O)n[nH]c3C(=O)N2CCCO)cc(OC)c1OC", "note": "(stereo not drawn)", "Potency": "inactive"}, {"smiles": "COc1ccc(-c2cc(-c3ccc(OC)cc3)[nH]n2)cc1", "Potency": "inconclusive: 6.51 µM [activator, partial curve, poor fit]"}, {"smiles": "Cc1cc(C)c(C(=O)CSC2=NC(N)=C(C#N)C3(CCCCC3)C2C(N)=O)cc1C", "note": "(stereo not drawn)", "Potency": "inconclusive: 16.4 µM [inhibitor, single point]"}, {"smiles": "Oc1ccc(C=NN=C2c3ccccc3-c3ccccc32)c(O)c1", "Potency": "inconclusive: 15.8 µM [inhibitor, single point]"}, {"smiles": "CCN(CC)S(=O)(=O)c1ccc(N2CCOCC2)c(NC(=O)CCC2CCCCC2)c1", "activity change, negative = inhibition": "inactive: -28.4%"}, {"smiles": "O=C1CN(c2ccc(Br)cc2)C(=O)N1CC(=O)N1CCCc2ccccc21", "Potency": "inconclusive: 18.3 µM [inhibitor, partial curve, poor fit]"}, {"smiles": "CN(C)c1nc(N(C)C)nc(N(C#N)CN2C(=O)c3ccccc3C2=O)n1", "activity change, negative = inhibition": "inactive: -4.89%"}, {"smiles": "O=C(NC(=S)N1CCCc2ccccc21)c1ccco1", "activity change, negative = inhibition": "inactive: 6.59% [at 46.1 µM]"}, {"smiles": "COc1cccc(NC(=O)c2c(C(=O)Nc3ccccc3)sc3nc(C)cc(=O)n23)c1", "activity change, negative = inhibition": "inactive: 2.28% [at 46.1 µM]"}, {"smiles": "CS(=O)(=O)c1cnc(-c2ccccc2)nc1Sc1ccc(F)cc1", "Potency": "inconclusive: 5.62 µM [activator, partial curve]"}, {"smiles": "O/N=C/c1c[nH]c2ccccc12", "activity change, negative = inhibition": "inactive: 3.33%"}, {"smiles": "COc1ccc(Nc2ccc(S(=O)(=O)N3CCCCC3)cc2[N+](=O)[O-])cc1", "activity change, negative = inhibition": "inactive: -7.52%"}, {"smiles": "Cc1c(-c2ccc(OCc3ccccc3)cc2)nc2ccccc2c1C(=O)O", "Potency": "inconclusive: 12.6 µM [inhibitor, partial curve, poor fit]"}, {"smiles": "S=C(NCc1ccco1)N1CCN(c2nc(-c3ccc(Cl)cc3)cs2)CC1", "Potency": "inconclusive: 14.1 µM [inhibitor, single point]"}, {"smiles": "O=C(CSc1nnc2ccccn12)c1ccc2c(c1)OCCO2", "Potency": "inconclusive: 0.1 µM [activator, full curve, poor fit]"}, {"smiles": "c1ccc(Nc2nc(N3CCCCC3)nc(N3CCCCC3)n2)cc1", "Potency": "inconclusive: 10 µM [inhibitor, partial curve, poor fit]"}, {"smiles": "CCOC(=O)c1[nH]c2ccc(OC)cc2c1NS(=O)(=O)c1ccc(Cl)s1", "Potency": "inconclusive: 14.1 µM [inhibitor, partial curve]"}, {"smiles": "COc1ccc(-n2nc(C(=O)NCC(=O)Nc3cccc(Cl)c3)c3ccccc3c2=O)cc1OC", "Potency": "inconclusive: 3.16 µM [inhibitor, single point]"}, {"smiles": "CC1CCc2c(C(=O)Nc3nccs3)csc2C1", "note": "(stereo not drawn)", "Potency": "inconclusive: 3.16 µM [activator, full curve]"}, {"smiles": "CSCCCNC(=S)Nc1cccc(S(=O)(=O)NC2=NCCC2)c1", "Potency": "inconclusive: 3.16 µM [inhibitor, single point]"}, {"smiles": "CC(=Nc1ccccc1)C1=C(O)C(Cc2ccc(O)cc2)NC1=O", "note": "(stereo not drawn)", "activity change, negative = inhibition": "inactive: -23.9%"}, {"smiles": "O=S(=O)(c1ccccc1)c1nc(-c2ccc(F)cc2)oc1N1CCCCCC1", "Potency": "inconclusive: 1.26 µM [inhibitor, partial curve, poor fit]"}, {"smiles": "COc1ccc(CCn2c(=N)c(C(=O)NCCN3CCOCC3)cc3c(=O)n4ccccc4nc32)cc1OC", "Potency": "inconclusive: 10 µM [inhibitor, partial curve, poor fit]"}, {"smiles": "CSc1ccc(C2c3c(oc4ccccc4c3=O)C(=O)N2CCCN2CCOCC2)cc1", "note": "(stereo not drawn)", "Potency": "inconclusive: 11.2 µM [activator, partial curve, poor fit]"}, {"smiles": "CC(C)(C)C(=O)OC1=CN(Cc2ccccc2)S(=O)(=O)c2ccccc21", "activity change, negative = inhibition": "inactive: 17.4% [at 46.1 µM]"}, {"smiles": "Fc1ccccc1CSc1ncnc2c1ncn2C1CCCO1", "note": "(stereo not drawn)", "Potency": "active: 0.891 µM"}, {"smiles": "Cc1cc(C)c(Nc2ncccc2C(=O)O)c(C)c1", "activity change, negative = inhibition": "inactive: 1.59% [at 46.1 µM]"}, {"smiles": "O=C(COC(=O)c1ccc([N+](=O)[O-])cc1)Nc1ccccc1C(=O)NC1CC1", "activity change, negative = inhibition": "inactive: 16.5% [at 46.1 µM]"}]}]}
